Some results were stated once for a whole list of compounds, not compound by compound. Some compounds share one range, which may span the group rather than tell each member.
Tested on: Acinetobacter baumannii 6M-1b
Test: MIC90 broth microdilution
Format: cell-based
Design: unit not given beside the values
Conditions: strain 6M-1b; one range stated in text for the three drugs together, no unit in sentence

Question: How did the MIC90 turn out when `CC(=O)NC[C@H]1CN(c2ccc(N3CCOCC3)c(F)c2)C(=O)O1` [Linezolid] was run?
Answer: 0.25-4.0

Question: `C[C@@H](O)[C@H]1C(=O)N2C(C(=O)O)=C(S[C@@H]3CN[C@H](C(=O)N(C)C)C3)[C@H](C)[C@H]12` [Meropenem] was tested. Which MIC90 did it give?
Answer: 0.25-4.0

Question: With `CC(=O)NC[C@H]1CN(c2ccc3c(c2)Oc2ccccc2O3)C(=O)O1` [T145, N-(((S)-3-(dibenzo[b,e][1,4]dioxin-7-yl)-2-oxooxazolidin-5-yl)methyl)acetamide] as the compound, how does the MIC90 read?
Answer: 0.25-4.0
